Source: paper PMC11334517
Tags and fusion partners may be left off the protein sequences shown.

Target: T1, Cj1608 (CjCemR + Cj1509 of strain 81-116) (Campylobacter jejuni 81-116) (UniProt Q0P820)
T1 sequence (looked up): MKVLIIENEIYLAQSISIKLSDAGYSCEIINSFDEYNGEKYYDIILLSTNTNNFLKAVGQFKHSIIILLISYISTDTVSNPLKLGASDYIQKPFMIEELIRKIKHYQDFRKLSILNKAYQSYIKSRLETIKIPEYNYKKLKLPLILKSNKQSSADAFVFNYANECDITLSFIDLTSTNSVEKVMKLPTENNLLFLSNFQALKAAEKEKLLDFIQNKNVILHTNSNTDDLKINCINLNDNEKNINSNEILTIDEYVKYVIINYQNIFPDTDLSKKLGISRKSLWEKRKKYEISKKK
Assay: EMSA
Settings: both labeled DNAs 5 nM each in the same reaction; 50 mM Tris-HCl pH 8.0, 100 mM NaCl, 0.2% Triton X-100; 20 min at 37 C (Cj1608) or 30 C (Abu0127); 4% PAGE in 0.5x TBE at about 10 C; recombinant protein; residues 1-295; label: FAM at 5' end of forward primer; probe letters rebuilt from the primers and the genome

Sequence: CTTTATTCAGCGCTTATTTTAACAGCGTTATTTGAGGCTATTATTGTTATGAGTATGATTAAATTTCTTTCTAATTCTAAAAAATGAAAGTTACTTTTTTACTCAAAAAAGCAAACAAAATCTTAAAAATTTAATAATAAAAAAACTCATAATCGTCCTTTTTTGTTAGAATTAATAAAAGTAACAATAAAAGGAGCGAAAATGTCAAATTCCGTTACTATAACCGATAATAGAAATGGAAAAAGCTATGAATTTCCTATATATGACGGTACAACTGGGCCATTCGAAGCTATTCTTACTCC (double strand) [pgltA-FAM]
- binding result: binds
